{"source": "PubChem BioAssay AID1259405 (NCATS, 2018)", "purpose": "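Knock-downs that lift recombinant protein yield in hamster ovary cells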 (primary screen)", "system": "Chinese hamster CHO-K1 ovary cells with stable secreted eGFP expression", "reagents": "single siRNA against mouse genes, 0.8 pmol siRNA per well (2 µl of 400 nM stock)", "time to read-out": "3 days", "measurement": "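Percent of the per-plate non-targeting control median for intracellular GFP per well by laser scanning cytometry and for cell viability by ATP luminescence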", "reading the numbers": "GFP, % of control: higher = more GFP per well, higher productivity; viability (ATP), % of control: higher = more viable cells (more ATP)", "hit rule": "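Called active when intracellular GFP, relative to negative control, is at or above 120%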", "note": "The whole screen tested about 50,000 reagents; shown is a part drawn at random. About 4,000 of them (8%) count as active. 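Mouse siRNA library applied to hamster cells; one well for each siRNA.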 Reagents against one gene are numbered here. No sequences are given here."}
{"target gene": "Trpc7", "reagent": 1, "GFP, % of control": 110, "viability (ATP), % of control": 133, "Outcome": "inactive"}
{"target gene": "Trpc7", "reagent": 2, "GFP, % of control": 79.5, "viability (ATP), % of control": 86.2, "Outcome": "inactive"}
{"target gene": "Trpc7", "reagent": 3, "GFP, % of control": 97.1, "viability (ATP), % of control": 84.8, "Outcome": "inactive"}
{"target gene": "Hormad1 (HORMA domain containing 1)", "reagent": 1, "GFP, % of control": 35.4, "viability (ATP), % of control": 44.9, "Outcome": "inactive"}
{"target gene": "Hormad1 (HORMA domain containing 1)", "reagent": 2, "GFP, % of control": 63.9, "viability (ATP), % of control": 52.9, "Outcome": "inactive"}
{"target gene": "Hormad1 (HORMA domain containing 1)", "reagent": 3, "GFP, % of control": 72.6, "viability (ATP), % of control": 111, "Outcome": "inactive"}
{"target gene": "Mgat4c (MGAT4 family, member C)", "reagent": 1, "GFP, % of control": 67.8, "viability (ATP), % of control": 70, "Outcome": "inactive"}
{"target gene": "Mgat4c (MGAT4 family, member C)", "reagent": 2, "GFP, % of control": 30.6, "viability (ATP), % of control": 28.9, "Outcome": "inactive"}
{"target gene": "Mgat4c (MGAT4 family, member C)", "reagent": 3, "GFP, % of control": 74.7, "viability (ATP), % of control": 107, "Outcome": "inactive"}
{"target gene": "Inf2 (inverted formin, FH2 and WH2 domain containing)", "reagent": 1, "GFP, % of control": 55.6, "viability (ATP), % of control": 65.7, "Outcome": "inactive"}
{"target gene": "Inf2 (inverted formin, FH2 and WH2 domain containing)", "reagent": 2, "GFP, % of control": 81.1, "viability (ATP), % of control": 88.1, "Outcome": "inactive"}
{"target gene": "Inf2 (inverted formin, FH2 and WH2 domain containing)", "reagent": 3, "GFP, % of control": 42.3, "viability (ATP), % of control": 40.9, "Outcome": "inactive"}
{"target gene": "Cramp1 (cramped chromatin regulator 1)", "reagent": 1, "GFP, % of control": 75.4, "viability (ATP), % of control": 59, "Outcome": "inactive"}
{"target gene": "Cramp1 (cramped chromatin regulator 1)", "reagent": 2, "GFP, % of control": 79, "viability (ATP), % of control": 109, "Outcome": "inactive"}
{"target gene": "Cramp1 (cramped chromatin regulator 1)", "reagent": 3, "GFP, % of control": 102, "viability (ATP), % of control": 88.3, "Outcome": "inactive"}
{"target gene": "Pkib", "reagent": 1, "GFP, % of control": 62.8, "viability (ATP), % of control": 66.5, "Outcome": "inactive"}
{"target gene": "Pkib", "reagent": 2, "GFP, % of control": 103, "viability (ATP), % of control": 94.5, "Outcome": "inactive"}
{"target gene": "Tmem70 (transmembrane protein 70)", "reagent": 1, "GFP, % of control": 74.2, "viability (ATP), % of control": 82.3, "Outcome": "inactive"}
{"target gene": "Tmem70 (transmembrane protein 70)", "reagent": 2, "GFP, % of control": 105, "viability (ATP), % of control": 67.6, "Outcome": "inactive"}
{"target gene": "Tmem70 (transmembrane protein 70)", "reagent": 3, "GFP, % of control": 82.4, "viability (ATP), % of control": 80.9, "Outcome": "inactive"}
{"target gene": "Primpol (primase and polymerase (DNA-directed))", "reagent": 1, "GFP, % of control": 54.6, "viability (ATP), % of control": 54.9, "Outcome": "inactive"}
{"target gene": "Primpol (primase and polymerase (DNA-directed))", "reagent": 2, "GFP, % of control": 90.9, "viability (ATP), % of control": 81, "Outcome": "inactive"}
{"target gene": "Primpol (primase and polymerase (DNA-directed))", "reagent": 3, "GFP, % of control": 129, "viability (ATP), % of control": 58.9, "Outcome": "active"}

Not a retest: an excerpt of the list.
{"target gene": "Cramp1 (cramped chromatin regulator 1)", "reagent": 3, "GFP, % of control": 102, "viability (ATP), % of control": 88.3, "Outcome": "inactive"}
{"target gene": "Pkib", "reagent": 1, "GFP, % of control": 62.8, "viability (ATP), % of control": 66.5, "Outcome": "inactive"}

Next results:
{"target gene": "Gnpda1 (glucosamine-6-phosphate deaminase 1)", "reagent": 1, "GFP, % of control": 95.6, "viability (ATP), % of control": 94.3, "Outcome": "inactive"}
{"target gene": "Gnpda1 (glucosamine-6-phosphate deaminase 1)", "reagent": 2, "GFP, % of control": 108, "viability (ATP), % of control": 74, "Outcome": "inactive"}
{"target gene": "Gnpda1 (glucosamine-6-phosphate deaminase 1)", "reagent": 3, "GFP, % of control": 18.7, "viability (ATP), % of control": 103, "Outcome": "inactive"}
{"target gene": "Mapre2 (microtubule-associated protein, RP/EB family, member 2)", "reagent": 1, "GFP, % of control": 66.3, "viability (ATP), % of control": 73.7, "Outcome": "inactive"}
{"target gene": "Mapre2 (microtubule-associated protein, RP/EB family, member 2)", "reagent": 2, "GFP, % of control": 107, "viability (ATP), % of control": 73.1, "Outcome": "inactive"}
{"target gene": "Mapre2 (microtubule-associated protein, RP/EB family, member 2)", "reagent": 3, "GFP, % of control": 86.5, "viability (ATP), % of control": 44.9, "Outcome": "inactive"}
{"target gene": "Akap1 (A kinase anchor protein 1)", "reagent": 1, "GFP, % of control": 49.7, "viability (ATP), % of control": 26.2, "Outcome": "inactive"}
{"target gene": "Akap1 (A kinase anchor protein 1)", "reagent": 2, "GFP, % of control": 58.3, "viability (ATP), % of control": 59.6, "Outcome": "inactive"}
{"target gene": "Ly86 (lymphocyte antigen 86)", "reagent": 1, "GFP, % of control": 137, "viability (ATP), % of control": 109, "Outcome": "active"}
{"target gene": "Ly86 (lymphocyte antigen 86)", "reagent": 2, "GFP, % of control": 80.9, "viability (ATP), % of control": 93.8, "Outcome": "inactive"}
{"target gene": "Ly86 (lymphocyte antigen 86)", "reagent": 3, "GFP, % of control": 63.2, "viability (ATP), % of control": 78.6, "Outcome": "inactive"}
{"target gene": "Pik3r4 (phosphoinositide-3-kinase regulatory subunit 4)", "reagent": 1, "GFP, % of control": 90.7, "viability (ATP), % of control": 74.9, "Outcome": "inactive"}
{"target gene": "Fbxo17 (F-box protein 17)", "reagent": 1, "GFP, % of control": 71.7, "viability (ATP), % of control": 79.7, "Outcome": "inactive"}
{"target gene": "Fbxo17 (F-box protein 17)", "reagent": 2, "GFP, % of control": 51.7, "viability (ATP), % of control": 83.6, "Outcome": "inactive"}
{"target gene": "Fbxo17 (F-box protein 17)", "reagent": 3, "GFP, % of control": 72.9, "viability (ATP), % of control": 75.3, "Outcome": "inactive"}
{"target gene": "Klrc1 (killer cell lectin-like receptor subfamily C, member 1)", "reagent": 1, "GFP, % of control": 101, "viability (ATP), % of control": 113, "Outcome": "inactive"}
{"target gene": "Klrc1 (killer cell lectin-like receptor subfamily C, member 1)", "reagent": 2, "GFP, % of control": 115, "viability (ATP), % of control": 78.3, "Outcome": "inactive"}
